For some of these results: The exact form of at least one protein or probe is not confirmed. For some of these results: A negative result means that nothing was seen under these conditions. For some of these results: The comparison behind a weaker result is the experiment's own reference, which may not be listed here. For some of these results: Whether high values mean tight binding is not given here for every scale.

In data set [1] the test system is IgG Fc fragment (Homo sapiens). Kind of data set: filter binding. To be noted: negligible; 37.5 mM NaCl, 3.75 mM sodium citrate, pH 6.0; purified native protein; single-stranded DNA.
The test system of another data set is IgG Fab'2 fragment. Nature of the data set: pull-down. Particulars: 5' aminohexyl, on Sepharose, purified native protein.
Data set [2] relates to IgG, polyclonal (ChromPure) (Homo sapiens). Nature of the data set: pull-down. To be noted: 5' aminohexyl, Sepharose-immobilized; control oligo, much lower retention than H2 and C7; 100 mM TEAA, 20 mM Mg2+, pH 7; purified native protein; protein details: Jackson ImmunoResearch; single-stranded DNA.
The next data set concerns alpha-thrombin. Nature of the data set: binding assay. Particulars: inosine at positions 1 and 10 [inosine at 1,10]; affinity column; 125 mM TEAA, 10 mM KCl pH 6.5, LiCl gradient; purified native protein; single-stranded DNA; letters built from the parent sequence and the stated change; variant of RAD13 (TTT-aptamer).
Another data set has as its system beta-thrombin. Kind of data set: binding assay. To be noted: inosine at positions 1 and 10 [inosine at 1,10]; about 2 min, just after void; gamma-thrombin same; purified native protein; single-stranded DNA; letters built from the parent sequence and the stated change; variant of RAD13 (TTT-aptamer); counted as no binding.
The next data set concerns gamma-thrombin. Nature of the data set: binding assay. To be noted: I = inosine [1, 10 (inosine in place of G)]; affinity column; elutes just after void peak; purified native protein; folded or branched DNA; letters built from the parent sequence and the stated change; variant of TTT-aptamer.

As to TTTTCGCGCGTTAACGCGCGAA [RAD16], the binding result in data set [1] was “no binding”.

TTTTGGTTGGGGTGGTTGG [H2]: the binding result in the data set on IgG Fab'2 fragment (retention H2>C7>>TG repeat>blank, 100 mM TEAA, 20 mM Mg2+, pH 7, folded or branched DNA) is reported as “binds”.

Take TGTGTGTGTGTGTGT [(TG)7T control]: the binding result (in the data set with IgG Fab'2 fragment (single-stranded DNA); in data set [2]) was “binds more weakly” each time.

In the case of CCTTCCTTTGGAAGGTTG [RAD23], the binding result in data set [1] is “no binding”.

Take TTTTCGCGCGTACGCGCGCGAA [RAD15]: the binding result in data set [1] is “no binding”.

Regarding “GGTTGGTTTGGTTGG [inosine-variant anti-thrombin TAL]”, the binding signal (min retention) in the data set on alpha-thrombin stood at 9; in the data set with beta-thrombin, 2; with gamma-thrombin, 2.

On to TTTTCGCGCGTTTCCGCGCGAA [C7], for which the binding result with IgG Fab'2 fragment (retention H2>C7>>TG repeat>blank, 100 mM TEAA, 20 mM Mg2+, pH 7, single-stranded DNA) was “binds”.

(Values after US20100233678.)
